Results taken from PMC11540758.
No constants are given. Whether binding was seen depends on the method and setting. In cells and extracts the contact can be indirect.

Biological target: StGPT1-GFP (potato (Solanum tuberosum))
Assay: co-IP

B1: Arabidopsis ATL1 (enzyme, UniProt P93823 1-381)
chain: MDLTDRRNPFNNLVFPPPPPPPSTTFTSPIFPRTSSSGTNFPILAIAVIGILATAFLLVSYYIFVIKCCLNWHQIDIFRRRRRSSDQNPLMIYSPHEVNRGLDESAIRAIPVFKFKKRDVVAGEEDQSKNSQECSVCLNEFQEDEKLRIIPNCCHVFHIDCIDIWLQGNANCPLCRTSVSCEASFTLDLISAPSSPRENSPHSRNRNLEPGLVLGGDDDFVVIELGASNGNNRESVRNIDFLTEQERVTSNEVSTGNSPKSVSPLPIKFGNRGMYKKERKFHKVTSMGDECIDTRGKDGHFGEIQPIRRSISMDSSVDRQLYLAVQEEISRRNRQIPVAGDGEDSSSSGGGNSRVMKRCFFSFGSSRTSKSSSILPVYLEP
binding: no binding
